Sequences of proteins named here, by UniProt entry; tags and fusion partners are left off.
UniProt P63159: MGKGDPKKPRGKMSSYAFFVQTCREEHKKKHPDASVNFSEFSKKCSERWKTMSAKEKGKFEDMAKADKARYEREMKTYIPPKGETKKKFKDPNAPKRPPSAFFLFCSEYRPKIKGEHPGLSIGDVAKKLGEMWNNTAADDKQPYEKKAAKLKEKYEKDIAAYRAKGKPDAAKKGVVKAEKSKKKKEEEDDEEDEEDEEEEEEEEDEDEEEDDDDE
UniProt P18757: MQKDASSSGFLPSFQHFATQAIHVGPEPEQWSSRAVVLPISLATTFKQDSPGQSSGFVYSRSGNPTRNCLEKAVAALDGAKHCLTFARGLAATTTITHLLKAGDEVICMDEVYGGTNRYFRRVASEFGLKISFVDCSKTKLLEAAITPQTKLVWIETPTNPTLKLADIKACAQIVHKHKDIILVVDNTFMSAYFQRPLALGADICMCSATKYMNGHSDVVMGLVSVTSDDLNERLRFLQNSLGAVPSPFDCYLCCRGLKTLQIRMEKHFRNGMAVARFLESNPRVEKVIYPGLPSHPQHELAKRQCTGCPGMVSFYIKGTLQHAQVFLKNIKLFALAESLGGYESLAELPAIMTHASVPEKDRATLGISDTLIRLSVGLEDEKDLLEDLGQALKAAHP

In PMC5297800:

B1: Betaine-homocysteine S-methyltransferase 1 (enzyme, UniProt O09171 1-407)
chain: MAPIAGKKAKRGILERLNAGEVVIGDGGFVFALEKRGYVKAGPWTPEAAVEHPEAVRQLHREFLRAGSNVMQTFTFYASEDKLENRGNYVAEKISGQKVNEAACDIARQVADEGDALVAGGVSQTPSYLSCKSETEVKKIFHQQLEVFMKKNVDFLIAEYFEHVEEAVWAVEALKTSGKPIAATMCIGPEGDLHGVSPGECAVRLVKAGAAIVGVNCHFDPSTSLQTIKLMKEGLEAARLKAYLMSHALAYHTPDCGKQGFIDLPEFPFGLEPRVATRWDIQKYAREAYNLGVRYIGGCCGFEPYHIRAIAEELAPERGFLPPASEKHGSWGSGLDMHTKPWIRARARKEYWQNLRIASGRPYNPSMSKPDAWGVTKGAAELMQQKEATTEQQLRALFEKQKFKSAQ

Target: High-mobility group box 1 (cytoplasmic) (rat (endogenous in Lewis rat liver)) (UniProt P63159)
Test: affinity purification with mass spectrometry; co-IP of rat liver cytoplasmic extract (WI/R 60 min ischemia, 6 h reperfusion; normal liver as comparison) with anti-HMGB1 (N-terminal), 10 mg extract to 10 µg antibody; eluates separated by 2DE, silver stained; spots seen only in WI/R gels excised and identified by MS/MS

| Molecule | binding |
| --- | --- |
| Cystathionine γ-lyase (from UniProt P18757 1-398) (enzyme) | binds |
| B1 | binds |

No constants are given. Whether binding was seen depends on the method and setting. In cells and extracts the contact can be indirect. A yes stands for co-enrichment or nearness to the bait. Other partners may have been found.
